AC50 data for 42 compounds are collected here from PubChem BioAssay AID662 (National Center for Advancing Translational Sciences (NCATS), 2007).

The list shows a part of the results. Further columns of the screen follow, without active or inactive calls. Most of these compounds were active or inconclusive in the main read-out, so they are no random draw. Words in brackets tell the shape of the fitted curve; partial curves, single points and poor fits give uncertain potencies.

The assay can be described thus: Cell signaling CRE-BLA (Fsk stim). Particulars: CHO CRE-bla reporter (cAMP response element driving beta-lactamase), forskolin EC10, beta-lactamase ratio; measured here: 460 nm blue channel. The method, boiled down: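 Using CellSensor CRE-bla CHO cells in Opti-MEM with 0.5% dialyzed FBS, compounds were titrated with EC10 NKH 477 for 3 h at 37 °C. CCF4 ratio (460/530 nm) gave %Activity; AC50 derived.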
For `CCN(CCCNC(=O)CCn1c(=O)[nH]c2ccccc2c1=O)c1ccccc1`, the concentration at half-maximal activity (AC50) was 0.126 µM [falling, partial curve, poor fit].

Consider `O=S1(=O)CCN2C(=N1)Sc1c2ccc2c1CCCC2`, for which the AC50 was 10 µM [rising, single point].

As to `CCOC(=O)c1cc2c(C(F)(F)F)cc(-c3cccnc3)nc2o1`, the concentration at half-maximal activity (AC50) was 3.98 µM [rising, single point].

Take `CSc1nc(-c2ccco2)nn1C(=O)c1cccs1`: the half-maximal activity concentration (AC50) was 6.31 µM [falling, partial curve].

For the compound `C[C@H](CCC(=O)O)[C@H]1CC[C@H]2[C@@H]3CC[C@@H]4C[C@H](O)CC[C@]4(C)[C@H]3CC[C@]12C`, the AC50 was 31.6 µM [falling, single point].

Consider `Oc1ccc(N2CCN(C(c3cccnc3)c3nnnn3Cc3ccccc3)CC2)cc1` (configuration not stated), for which the AC50 is 10 µM [falling, partial curve].

As for `COc1ccc(NC(=O)c2ccc3c(c2)OCO3)cc1Cl`, the concentration at half-maximal activity (AC50) was 10 µM [rising, single point].

For `O=C(C1Cc2ccccc2O1)N1CCCCC1` (configuration not stated), the half-maximal activity concentration (AC50) was 0.398 µM [falling, full curve].

Consider `CCOC(=O)c1ccc(NC(=O)CCc2c(C)nc3ncnn3c2C)cc1`, for which the AC50 was 20 µM [rising, single point].

With `O=C(O)CNC(=O)[C@@H](CS)Cc1ccccc1`, the AC50 is 12.6 µM [rising, single point].

Take `Cc1nn(-c2ccccc2)c(C)c1NC(=O)c1ccc(S(=O)(=O)N2CCCC2)cc1`: the AC50 is 12.6 µM [falling, partial curve].

As to `COc1cccc(Nc2nc(-c3sc(N)nc3C)cs2)c1`, the AC50 was 31.6 µM [falling, single point].

With `COc1nc2ccccc2cc1-c1noc(-c2cccnc2)n1`, the concentration at half-maximal activity (AC50) is 31.6 µM [falling, single point].

As to `N#CC1(c2c(O)nc3n(c2=O)CCCS3)CCCCC1`, the half-maximal activity concentration (AC50) was 0.251 µM [falling, full curve].

For `CCOC(=O)C1CCCN(Cc2cc(Br)ccc2OC)C1` (configuration not stated), the AC50 is 0.631 µM [rising, full curve].

As to `COc1ccc(NC(=O)CSc2nnc(-c3cccs3)n2-c2ccccc2)cc1`, the half-maximal activity concentration (AC50) is 10 µM [rising, single point].

As to `COc1cccc(-n2c(COc3ccccc3C)nnc2SCC(=O)O)c1`, the AC50 was 0.00794 µM [rising, full curve, poor fit].

In the case of `CCOC(=O)C1=C(c2ccccc2)Nc2ncnn2C1c1cc(OC)cc(OC)c1OC` (configuration not stated), the AC50 is 25.1 µM [rising, single point].

Regarding `CCC(C)c1ccc(NC(=O)c2cccnc2)cc1` (configuration not stated), the AC50 is 0.00316 µM [falling, full curve, poor fit].

`Nc1ccc(-c2nc3ccc(-c4nc5ccccc5o4)cc3[nH]2)cc1`: the AC50 was 12.6 µM [rising, partial curve].

On to `CC(C)CC1(C)NC(=O)N(CCN2C(=O)c3ccccc3C2=O)C1=O` (configuration not stated), for which the AC50 was 0.0316 µM [falling, full curve, poor fit].

On to `O=C(Nc1ccc2oc(-c3ccncc3)nc2c1)c1cccs1`, for which the half-maximal activity concentration (AC50) was 25.1 µM [rising, single point].

Consider `COCCn1c(=O)c(C)nc2cnc(N(C)C)nc21`, for which the half-maximal activity concentration (AC50) is 10 µM [rising, partial curve].

Take `COc1ccc(S(=O)(=O)N2CCCN(CC(=O)Nc3ccc(OC)c(Cl)c3)CC2)cc1`: the AC50 was 25.1 µM [rising, single point].

`COC(=O)C1=C(C)NC(C)=C(C(=O)OC(C)C)C1c1cccc2nonc12` (configuration not stated): the AC50 is 12.6 µM [rising, partial curve, poor fit].

As to `O=C(OCC(=O)N1CCOCC1)c1ccc2c(c1)OCCO2`, the AC50 is 3.98 µM [falling, single point].

In the case of `CC[C@@]12CCCN3CCc4c(n(c5ccccc45)[C@](O)(C(=O)OC)C1)[C@H]32`, the concentration at half-maximal activity (AC50) was 5.01 µM [falling, partial curve, poor fit].

As to `COC(=O)c1ccc(CN2CCN(Cc3ccc(C(=O)OC)o3)CC2)o1`, the half-maximal activity concentration (AC50) is 0.0794 µM [falling, partial curve, poor fit].

`c1ccc(-c2nnc(CSc3nc4ccccc4[nH]3)o2)cc1`: the AC50 is 10 µM [rising, single point].

Regarding `CCCc1cc(N2CCCC(C(=O)Nc3ccc(OC)cc3OC)C2)n2ncnc2n1` (configuration not stated), the AC50 was 10 µM [rising, single point].

For the compound `O=C(c1nc2nc(-c3ccc(Cl)cc3)cc(C(F)(F)F)n2n1)N1CCOCC1`, the AC50 is 15.8 µM [rising, partial curve].

In the case of `COc1cc(OC)c(C(=O)CCCCN2CCC3(CC2)NC(=O)NC3=O)cc1NS(=O)(=O)c1ccc(C(F)(F)F)cc1`, the AC50 was 7.94 µM [rising, partial curve, poor fit].

For the compound `O=C(COc1ccccc1)N1CCN(C(=O)Cc2ccccc2)CC1`, the AC50 is 0.00794 µM [falling, full curve].

For the compound `COC(=O)c1cc(=O)nc2sc3ccccc3n12`, the half-maximal activity concentration (AC50) is 12.6 µM [rising, partial curve].

On to `Cn1cc(-c2nc3cnc(N4CCNCC4)nc3n(C)c2=O)c2ccccc21`, for which the AC50 is 12.6 µM [rising, partial curve].

Consider `Cc1ccc(CNC(=O)C2C3C=CC4(CN(Cc5cccnc5)C(=O)C24)O3)cc1` (configuration not stated), for which the concentration at half-maximal activity (AC50) was 0.02 µM [rising, full curve, poor fit].

Regarding `Cc1ccc(S(=O)(=O)c2nc(-c3ccccc3)oc2NCc2cccnc2)cc1`, the AC50 is 12.6 µM [rising, single point].

Consider `CCCCNC(=O)c1ccc(N2CCOCC2)c(NS(=O)(=O)c2ccc(OC)cc2)c1`, for which the AC50 was 20 µM [rising, single point].

As to `COc1cccc(Nc2ncc3nc(-c4cn(C)c5ccccc45)c(=O)n(CCC#N)c3n2)c1`, the concentration at half-maximal activity (AC50) was 12.6 µM [rising, partial curve].

For the compound `CC(C)Sc1nc2c(c(=O)n1C)SC(C)C2` (configuration not stated), the half-maximal activity concentration (AC50) is 12.6 µM [rising, partial curve, poor fit].

For `COc1ccc(-n2c(=O)c(-c3ccc(F)cc3)nc3cnc(OC)nc32)cc1`, the half-maximal activity concentration (AC50) was 3.98 µM [rising, single point].

In the case of `O=C(NCCc1ccc2c(c1)OCCO2)c1cc2ccccc2o1`, the concentration at half-maximal activity (AC50) was 25.1 µM [falling, single point].
